The other results are listed elsewhere or left out.
Biological target: OsWRKY34 (Oryza sativa, UniProt Q0JBA9 1-250)
Assay: protein-binding microarray (RPBM); PBS, 2% BSA, 51.3 ng/ul salmon testes DNA, 50 uM zinc acetate, 200 nM TF, 25 C, 1 h; high values mean tight binding
Conditions: protein: recombinant; tags: N-terminal polyhistidine and DsRed monomer fusion (pET32a); label: CyDye5-dUTP incorporated in the synthesized complementary strand; 3' TTTTT single-stranded linker to array surface; dsDNA, one strand shown
How it was run: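 Using Ni–NTA, transcription factors fused N-terminally to polyhistidine and DsRed were purified after expression in E. coli BL21-CodonPlus. These were incubated at 200 nM with a blocked, double-stranded custom Agilent array for 1 h at 25 °C in a buffer containing 50 µM zinc acetate, and the array was washed. The binding signal is per-feature fluorescence intensity (arbitrary units) on an Axon 4000B scanner.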

The chains behind the UniProt entries cited, without tags or fusion partners.
UniProt Q0JBA9, entry or part of it: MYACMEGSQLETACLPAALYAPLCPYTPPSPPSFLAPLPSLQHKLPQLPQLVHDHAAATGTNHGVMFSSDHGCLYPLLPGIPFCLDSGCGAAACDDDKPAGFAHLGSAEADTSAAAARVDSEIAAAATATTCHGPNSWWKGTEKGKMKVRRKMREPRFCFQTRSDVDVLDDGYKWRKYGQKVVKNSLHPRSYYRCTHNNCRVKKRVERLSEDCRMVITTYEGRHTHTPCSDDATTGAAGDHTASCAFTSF

Sequence | binding signal
CCGGTCTCTCTCTTGGTGATTGATTGATTATCGTTTTGACCGGAGTCACCTAGTGCAG | 12000 fluorescence intensity (a.u.)
TTTTTTTCTCCTTTCCTTCTTCTCTCTCTCTCTTTTTTTTCGGAGTCACCTAGTGCAG | 8870 fluorescence intensity (a.u.)
AAATGGATGTTAAACTCGGTCTACCCCGTATGTTTCCTCACGGAGTCACCTAGTGCAG | 8480 fluorescence intensity (a.u.)
TCCCTTGTACACCTGTAACCACTCCACAGTCCACCCCAACCGGAGTCACCTAGTGCAG | 10900 fluorescence intensity (a.u.)
CTTCCTACTACTTTTAACCCTGTCAAGTGTCGACTGGACACGGAGTCACCTAGTGCAG | 8490 fluorescence intensity (a.u.)
CTTCTCTTATTGTTTGTGTCATTTTCATTTATGTCCTTGTCGGAGTCACCTAGTGCAG | 9800 fluorescence intensity (a.u.)
ACTGTACTGAGTGCTATAGCACGCATCTATGAACCTTTCCCGGAGTCACCTAGTGCAG | 8490 fluorescence intensity (a.u.)
GTCCGGATCTCCGCTCTTTGTCGAGTCGACTCCTATTCCTCGGAGTCACCTAGTGCAG | 8470 fluorescence intensity (a.u.)
AGGGGAGGCGTCGCTTGGTCGCCATCTTCGTCGTTTGCTTCGGAGTCACCTAGTGCAG | 9720 fluorescence intensity (a.u.)
TATAGTATGTTTCAGCTGTCTGCGGTTAGTATTTGATGTTCGGAGTCACCTAGTGCAG | 9360 fluorescence intensity (a.u.)
TTCTTTCCCTAATCTCCTGTGCATGTTGTCGTTCCATCTGCGGAGTCACCTAGTGCAG | 10300 fluorescence intensity (a.u.)
ATCCTCTTTCATCTCATCCGTCCATCCACCATTTCATTTACGGAGTCACCTAGTGCAG | 10200 fluorescence intensity (a.u.)
GACGGTGAATAGTGGGATACTTTTATAATGGTGTTATGTTCGGAGTCACCTAGTGCAG | 10100 fluorescence intensity (a.u.)
ATTCGTTTGCCCGTCACAGGTATCCCGTCAGAGGTGTGAGCGGAGTCACCTAGTGCAG | 8650 fluorescence intensity (a.u.)
CCTACTCCGCGAATCCGTCCCCGAGAACGCGCGCGCCATGCGGAGTCACCTAGTGCAG | 8160 fluorescence intensity (a.u.)
CATCGCCCACGCCAATGTCGTCGCCGACGTCTCGCTGCCGCGGAGTCACCTAGTGCAG | 8820 fluorescence intensity (a.u.)
GGCTCCGGAACTTACTCTAGCGCGCGTCGGATGACAAAATCGGAGTCACCTAGTGCAG | 10100 fluorescence intensity (a.u.)
CACTTCACAATTTGCTAGCCTCGGAAATACATGCCTCATTCGGAGTCACCTAGTGCAG | 9590 fluorescence intensity (a.u.)
ACTGACATCATCACCAGCACCTCTGCTTCATCGACCCTGACGGAGTCACCTAGTGCAG | 9940 fluorescence intensity (a.u.)
TTTGATTAGATGGTGTGGTGTTTGGCTGATACACTGATACCGGAGTCACCTAGTGCAG | 9670 fluorescence intensity (a.u.)
AGGCACACAACTATTTCTTCCAAAAAAATGTCTTTTTTCTCGGAGTCACCTAGTGCAG | 8540 fluorescence intensity (a.u.)

Sequence | binding signal
AACTTGCCTTTCCGTTCCGCCGCTCGGTCTGCTCCAGCCACGGAGTCACCTAGTGCAG | 8280 fluorescence intensity (a.u.)
TTTTGGGGTTTTTTTAATATCCTTTTAGGATGGATAGGCACGGAGTCACCTAGTGCAG | 8560 fluorescence intensity (a.u.)
TTGTCCTAGGCTGACACGCCAGTCCCACTCTCTCCATTTACGGAGTCACCTAGTGCAG | 9420 fluorescence intensity (a.u.)
ACAAAGGACAGCTATTTAACAACTCCCTCGCTCTCTCAATCGGAGTCACCTAGTGCAG | 8830 fluorescence intensity (a.u.)
GCGACCGCCTCCGCGACCGACCGCCGCCGCTCGTTGTCAGCGGAGTCACCTAGTGCAG | 8740 fluorescence intensity (a.u.)
CGATAATATACCATCGTTGTCTAATTAGTTTTGGTTAGTACGGAGTCACCTAGTGCAG | 8350 fluorescence intensity (a.u.)
CTTTCTGCACTGCATCAACGCGCTGCAAATTCTTTGGTAACGGAGTCACCTAGTGCAG | 8220 fluorescence intensity (a.u.)
TCCTATCCGCGTCCATCTCTCTCCCCGTCTCGATTCCCCACGGAGTCACCTAGTGCAG | 10300 fluorescence intensity (a.u.)
GAATCATACTCGTGTCATAGTTGAGGGAGTCAAAGTATACCGGAGTCACCTAGTGCAG | 8330 fluorescence intensity (a.u.)
CTGGTTGCGTCTCTGAAGTCTGAAGTATACGAGTCATTCACGGAGTCACCTAGTGCAG | 12000 fluorescence intensity (a.u.)
TACTGCTGCCTGCGTCCTCATCAAAGCTCGCCATTATCAGCGGAGTCACCTAGTGCAG | 8170 fluorescence intensity (a.u.)
TGATACTAGCGCTTCGATTGACACACTTTGACTACTTAGCCGGAGTCACCTAGTGCAG | 9940 fluorescence intensity (a.u.)
GGAGGATGCGGGTGGTGGTGGAGGAGGAGGAGGCCGAGGTCGGAGTCACCTAGTGCAG | 12400 fluorescence intensity (a.u.)
CCAAAATATCTCGTCTTTTCATCTGCCGAATCGCCGTTGACGGAGTCACCTAGTGCAG | 8930 fluorescence intensity (a.u.)
TTCTTTATTAGACATACTCTGCCACCACTGCACACAATCCCGGAGTCACCTAGTGCAG | 8420 fluorescence intensity (a.u.)
AAACTTGAAGAAATTTGACTTTAGCTAAAGTCAAAACATCCGGAGTCACCTAGTGCAG | 10600 fluorescence intensity (a.u.)
ATCCTACCCGGTTCGTTTTTTTTCATTTTTTTTTACCACCCGGAGTCACCTAGTGCAG | 8130 fluorescence intensity (a.u.)
CCGCAGCTACCACCAAAATCGGCACGCATCTTCACCCTCGCGGAGTCACCTAGTGCAG | 8160 fluorescence intensity (a.u.)
TTCCTCTCCCTCTTGCATCTATCTCCGCCGCCGAATTTGGCGGAGTCACCTAGTGCAG | 8260 fluorescence intensity (a.u.)
TAACAATTATCTTGCCTTTTGGGAGCTCTTTTTTTTTCTTCGGAGTCACCTAGTGCAG | 10200 fluorescence intensity (a.u.)
TTCCCTCGCTTTGCTCCACTTTCTCTCCACTGGCGCATGCCGGAGTCACCTAGTGCAG | 9080 fluorescence intensity (a.u.)

Given with each value named: entries from further up.
AAACTTGAAGAAATTTGACTTTAGCTAAAGTCAAAACATCCGGAGTCACCTAGTGCAG
  binding signal = 10600 fluorescence intensity (a.u.)
ATCCTACCCGGTTCGTTTTTTTTCATTTTTTTTTACCACCCGGAGTCACCTAGTGCAG
  binding signal = 8130 fluorescence intensity (a.u.)
CCGCAGCTACCACCAAAATCGGCACGCATCTTCACCCTCGCGGAGTCACCTAGTGCAG
  binding signal = 8160 fluorescence intensity (a.u.)
